Patent US20250228895A1, “COMPOUNDS TO INHIBIT YTHDF2, T HELPER CELLS LACKING EXPRESSION OF YTHDF2, AND METHODS TO TREAT CANCER” (City of Hope, priority 2024, published 2025)
No constants are given. Whether binding was seen depends on the method and setting. In cells and extracts the contact can be indirect. Some entries that bind do so weakly or less than the wild type.

Target: p62 (mouse) (UniProt Q64337)
Test: co-immunoprecipitation from B16-OVA cell lysates with anti-YTHDF2 antibody, immunoblot for p62

B1: YTHDF2 (protein, mouse, UniProt Q91YT7 2-579, looked up)
chain: SASSLLEQRPKGQGNKVQNGSVHQKDGLNDDDFEPYLSPQARPNNAYTAMSDSYLPSYYSPSIGFSYSLGEAAWSTGGDTAMPYLTSYGQLSNGEPHFLPDAMFGQPGALGSTPFLGQHGFNFFPSGIDFSAWGNNSSQGQSTQSSGYSSNYAYAPSSLGGAMIDGQSAFANETLNKAPGMNTIDQGMAALKLGSTEVASSVPKVVGSAVGSGSITSNIVASSSLPPATIAPPKPASWADIASKPAKQQPKLKTKNGIAGSSLPPPPIKHNMDIGTWDNKGPVAKAPSQALVQNIGQPTQGSPQPVGQQANNSPPVAQASVGQQTQPLPPPPPQPAQLSVQQQAAQPTRWVAPRNRGSGFGHNGVDGNGVGQSQAGSGSTPSEPHPVLEKLRSINNYNPKDFDWNLKHGRVFIIKSYSEDDIHRSIKYNIWCSTEHGNKRLDAAYRSMNGKGPVYLLFSVNGSGHFCGVAEMKSAVDYNTCAGVWSQDKWKGRFDVRWIFVKDVPNSQLRHIRLENNENKPVTNSRDTQEVPLEKAKQVLKIIASYKHTTSIFDDFSHYEKRQEEEESVKKERQGRGK
binding: binds
